Test system: VCaP cells
Assay: apoptosis in VCaP cells (CaspaseGlo)
Format: cell-based
Details: Homo sapiens, CSS + 0.1 nM R1881, 72 hours, read-out: EC50, inducing apoptosis
Procedure: Intracellular prostate specific antigen (PSA) levels were determined using a PSA enzyme-linked immunosorbent assay (ELISA). […] The cell proliferation was determined using the CellTiter-Glo® assay. […] The CaspaseGlo® assay was carried out to measure the level of apoptosis in cells.
To evaluate the pharmacological effect of Compound A in vitro, PSA, cell proliferation, and apoptosis assays were carried out in VCaP cells.

EC50: 1660 nM
SMILES: CNC(=O)c1ccc(N2C(=S)N(c3ccc(C#N)c(C(F)(F)F)c3)C(=O)C2(C)C)cc1F [enzalutamide, reference compound]

Source: patent US20240180900A1, “COMPOUNDS AND METHODS FOR THE TARGETED DEGRADATION OF ANDROGEN RECEPTOR” (Arvinas Operations, Inc., priority 2022, published 2024)
